Results are given in words; binding and its absence hold for the method and conditions named. Binding seen in cells or lysates may run through a third protein. Some entries that bind do so weakly or less than the wild type. Tags and fused reporters may be left off the sequences shown.

Sequences of proteins named here, by UniProt entry; tags and fusion partners are left off. Residues count along the entry.
UniProt Q92841: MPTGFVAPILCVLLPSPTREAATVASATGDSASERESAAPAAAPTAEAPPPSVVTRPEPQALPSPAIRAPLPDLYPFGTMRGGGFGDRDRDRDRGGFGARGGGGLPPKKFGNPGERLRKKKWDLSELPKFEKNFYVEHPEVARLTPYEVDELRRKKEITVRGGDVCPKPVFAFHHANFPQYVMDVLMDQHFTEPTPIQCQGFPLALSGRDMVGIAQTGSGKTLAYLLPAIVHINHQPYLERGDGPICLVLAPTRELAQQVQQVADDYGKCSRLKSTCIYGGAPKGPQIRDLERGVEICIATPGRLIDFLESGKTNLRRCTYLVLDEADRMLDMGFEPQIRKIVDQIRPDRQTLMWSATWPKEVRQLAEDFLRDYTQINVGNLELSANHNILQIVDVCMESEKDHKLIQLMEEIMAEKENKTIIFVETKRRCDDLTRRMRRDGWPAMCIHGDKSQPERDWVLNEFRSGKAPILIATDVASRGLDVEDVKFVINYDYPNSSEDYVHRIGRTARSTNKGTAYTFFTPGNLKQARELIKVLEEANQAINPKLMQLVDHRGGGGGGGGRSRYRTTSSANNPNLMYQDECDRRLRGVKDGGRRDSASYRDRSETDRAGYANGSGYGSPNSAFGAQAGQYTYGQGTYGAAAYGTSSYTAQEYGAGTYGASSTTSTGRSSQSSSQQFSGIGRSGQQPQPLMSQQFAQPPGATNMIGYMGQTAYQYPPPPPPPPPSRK
UniProt P29372, residues 18-298: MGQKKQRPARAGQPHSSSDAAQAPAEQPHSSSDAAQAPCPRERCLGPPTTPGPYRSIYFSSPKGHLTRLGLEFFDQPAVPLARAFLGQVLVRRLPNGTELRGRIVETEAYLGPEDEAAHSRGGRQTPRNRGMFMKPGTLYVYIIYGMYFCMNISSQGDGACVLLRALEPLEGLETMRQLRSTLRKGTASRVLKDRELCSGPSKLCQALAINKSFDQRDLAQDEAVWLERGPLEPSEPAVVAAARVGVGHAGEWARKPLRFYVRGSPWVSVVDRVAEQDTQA

Data on three substances can be found in article PMC8197395.

For the assay, the target named is T1, Zeb1/GFP fusion protein (UniProt P37275).
T1 sequence: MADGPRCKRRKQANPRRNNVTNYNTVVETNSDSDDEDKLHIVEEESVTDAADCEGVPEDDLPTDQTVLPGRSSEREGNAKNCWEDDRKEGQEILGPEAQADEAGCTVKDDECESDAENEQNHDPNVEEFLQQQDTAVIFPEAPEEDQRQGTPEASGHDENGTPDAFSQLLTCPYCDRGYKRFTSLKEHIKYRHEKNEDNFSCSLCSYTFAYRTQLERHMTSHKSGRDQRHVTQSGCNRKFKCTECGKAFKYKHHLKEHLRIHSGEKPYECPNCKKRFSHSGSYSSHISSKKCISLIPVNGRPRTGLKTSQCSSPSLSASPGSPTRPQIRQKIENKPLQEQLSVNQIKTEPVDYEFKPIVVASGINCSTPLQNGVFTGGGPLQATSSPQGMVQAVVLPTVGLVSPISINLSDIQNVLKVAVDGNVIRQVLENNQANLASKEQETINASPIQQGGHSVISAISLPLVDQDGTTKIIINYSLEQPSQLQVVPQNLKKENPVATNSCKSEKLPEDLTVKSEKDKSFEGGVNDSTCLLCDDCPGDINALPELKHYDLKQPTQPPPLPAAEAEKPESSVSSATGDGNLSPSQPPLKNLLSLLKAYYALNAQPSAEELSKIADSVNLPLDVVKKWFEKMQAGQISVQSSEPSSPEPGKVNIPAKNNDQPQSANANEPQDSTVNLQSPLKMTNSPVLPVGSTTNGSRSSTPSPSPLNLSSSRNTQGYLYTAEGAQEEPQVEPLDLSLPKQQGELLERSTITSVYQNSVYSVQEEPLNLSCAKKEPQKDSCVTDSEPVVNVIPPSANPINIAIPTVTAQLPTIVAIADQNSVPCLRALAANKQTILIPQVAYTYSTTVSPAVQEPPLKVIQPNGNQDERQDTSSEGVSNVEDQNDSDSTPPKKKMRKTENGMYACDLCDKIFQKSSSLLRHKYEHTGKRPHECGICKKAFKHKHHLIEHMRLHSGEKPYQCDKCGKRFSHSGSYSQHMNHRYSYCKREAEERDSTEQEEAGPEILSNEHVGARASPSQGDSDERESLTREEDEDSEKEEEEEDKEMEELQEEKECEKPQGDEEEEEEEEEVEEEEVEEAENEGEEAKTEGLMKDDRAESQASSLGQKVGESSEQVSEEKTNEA
As to the kind of experiment: co-IP; nuclear extracts of MCF-7/Zeb1 cells at 0, 24 and 72 h after doxycycline; precipitated with llama nanoantibodies to GFP on sepharose; immunoblot with antibodies to the partners.

“ATP-dependent RNA helicase DDX17 (from UniProt Q92841 1-729)”: the binding result is “binds”.

On to “C-terminal-binding protein 2 (from UniProt P56545 1-445)”, for which the binding entry is listed as “binds”.

On to MPG (from UniProt P29372 18-298), for which the binding result is “binds”.
